Experimental data: patent US8999940B2 (Ipsen Pharma S.A.S., priority 2008, dated 2015)
Part of at least one peptide drawing is inferred or uncertain, most often the ends. Where no end group is shown, it is not given here. [ ]: non-standard residue; d: D form. Tyr(3-OMe) = COc1cc(C[C@H](N)C(=O)O)ccc1O; Ac5c = NC1(C(=O)O)CCCC1; Aib = CC(C)(N)C(=O)O

Molecular target: T1, human recombinant GIP receptor (Homo sapiens, UniProt P48546)
T1 construct: expressed in transfected cells; host or cells: CHO-K1 clonal cells (membrane preparation)
T1 sequence (P48546 22-466): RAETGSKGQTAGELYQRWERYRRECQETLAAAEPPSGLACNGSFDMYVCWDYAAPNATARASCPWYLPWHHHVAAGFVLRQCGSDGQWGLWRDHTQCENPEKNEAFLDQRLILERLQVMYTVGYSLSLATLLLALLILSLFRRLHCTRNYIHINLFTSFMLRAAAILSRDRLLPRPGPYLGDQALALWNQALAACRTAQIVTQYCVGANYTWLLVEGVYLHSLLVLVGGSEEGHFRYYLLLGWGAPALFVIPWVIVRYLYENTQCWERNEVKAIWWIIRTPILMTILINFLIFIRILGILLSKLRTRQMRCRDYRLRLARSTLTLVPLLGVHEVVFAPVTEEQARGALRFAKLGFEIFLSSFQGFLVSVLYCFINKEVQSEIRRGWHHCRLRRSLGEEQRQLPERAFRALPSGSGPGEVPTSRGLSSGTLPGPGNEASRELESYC
Assay: In vitro hGIP receptor binding assay
Settings: membranes of CHO-K1 cells expressing the human recombinant GIP receptor; 0.05 nM [125I]GIP; 100 minutes at 25° C.
Procedure: A. In Vitro hGIP Receptor Binding Assay […] The incubations were terminated by rapid filtration through GF/C filters (pre-soaked in 0.5% polyethylenimine) using a Brandel filtration manifold. Each tube and filter were then washed three times with 5-ml aliquots of ice-cold buffer.

[Tyr(3-OMe)][Aib]EGTFISDY[Ac5c]IA[Ac5c]DKIHQQDFVNWLLAQKGKKNDWKHNI[Ac5c]QH-OH [Example 75, (3MeO-Tyr^1, Aib^2, A5c^11, 14, His^43)hGIP(1-43)-OH]
Ki: 6.4 nM
